These are yes or no findings as the source states them, for the method shown. Some binding calls cover weakened binding; strength is not graded here. Tags and fused reporters may be left off the sequences shown.

This passage reports binding results from patent publication US20190321483A1 (Novartis, published 2019).

The target of the test is T1, Mouse cKIT ECD, C-terminal 6x His (Sino Biological Inc, Catalog number 50530-M08H) (mouse) (UniProt P05532).
T1 sequence: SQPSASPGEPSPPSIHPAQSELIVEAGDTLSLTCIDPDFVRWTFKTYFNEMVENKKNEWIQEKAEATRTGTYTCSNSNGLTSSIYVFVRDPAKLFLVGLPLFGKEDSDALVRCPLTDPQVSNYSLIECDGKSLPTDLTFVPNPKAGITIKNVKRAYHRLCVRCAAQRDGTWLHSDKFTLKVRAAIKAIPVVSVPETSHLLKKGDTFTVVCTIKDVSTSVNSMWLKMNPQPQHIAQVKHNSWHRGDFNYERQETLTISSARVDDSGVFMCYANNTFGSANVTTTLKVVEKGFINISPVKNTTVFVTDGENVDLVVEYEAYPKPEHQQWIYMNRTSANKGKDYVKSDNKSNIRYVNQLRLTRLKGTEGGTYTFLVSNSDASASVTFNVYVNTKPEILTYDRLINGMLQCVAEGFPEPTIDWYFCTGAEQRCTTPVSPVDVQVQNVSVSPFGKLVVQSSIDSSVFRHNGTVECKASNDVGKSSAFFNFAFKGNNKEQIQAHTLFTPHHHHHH
Kind of test: cross reactivity, Table 6 (Example 4: Biacore SPR, antibody captured, cKIT ECD in solution).

B1: Anti-cKIT Ab4 (antibody, human IgG1, lambda, V domains shown)
VH: QVQLQQSGPGLVKPSQTLSLTCAISGDSVSTNSAAWNWIRQSPSRGLEWLGRIYYRSQWLNDYAVSVKSRITINPDTSKNQFSLQLNSVTPEDTAVYYCARQLTYPYTVYHKALDVWGQGTLVTVSS
VL: DIELTQPPSVSVSPGQTASITCSGDNLGDQYVSWYQQKPGQAPVLVIYDDTDRPSGIPERFSGSNSGNTATLTISGTQAEDEADYYCQSTDSKSVVFGGGTKLTVLG
notes: Full-length human IgG1, lambda light chain; also called IgG control for J4
In the case of B1, the binding entry is “binds”.

B2: Anti-cKIT Ab5 (antibody, human IgG1, lambda, V domains shown)
VH: QVQLVQSGAEVKKPGESLKISCKGSGYSFTNYWIAWVRQMPGKGLEWMGIIYPSNSYTLYSPSFQGQVTISADKSISTAYLQWSSLKASDTAMYYCARVPPGGSISYPAFDHWGQGTLVTVSS
VL: DIELTQPPSVSVSPGQTASITCSGDNIGSIYASWYQQKPGQAPVLVIYRDNKRPSGIPERFSGSNSGNTATLTISGTQAEDEADYYCSVTDMEQHSVFGGGTKLTVLG
notes: Full-length human IgG1, lambda light chain
B2: the binding entry is recorded as “binds”.
